Results deposited as PubChem BioAssay AID504804 (Drosophila RNAi Screening Center, 2011)
Purpose: 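Knock-downs shielding fly cells from apoptosis caused by DNA damage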 (primary screen). Cell system: Drosophila Kc cells. Reagents: long dsRNA against Drosophila genes, 0.5 µg dsRNA per well. Time to read-out: 96 h (48 h knock-down, then 48 h drug). Conditions: doxorubicin 5 µg/ml for 48 h, added 48 h after dsRNA. Measured: 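Viability measured as cellular ATP by luminescence after 48 h knock-down then 48 h doxorubicin at 5 µg/ml; unnormalised plate counts for each replicate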. Scale: raw ATP luminescence: higher = more viable cells, protection from doxorubicin. Hit rule: 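z-score of 2 or more over plate mean in both duplicates, retained only when retests and separate dsRNAs confirm the protection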.
The screen tested about 19,000 reagents; below is a random part of those with a known target gene and a result. In the full data, 47 (0.25%) got an active call. 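Signals are raw, not normalised; exact z-scores behind calls not deposited; actives needed confirmation, so some wells reaching 2 SD are inactive.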 Unmarked entries are inactive.

vig2 [DRSC14402] | raw ATP luminescence, replicate 1 = 30863; raw ATP luminescence, replicate 2 = 42187
CG17784 [DRSC15268] | raw ATP luminescence, replicate 1 = 65280; raw ATP luminescence, replicate 2 = 87410
CG34345 [DRSC02126] | raw ATP luminescence, replicate 1 = 24663; raw ATP luminescence, replicate 2 = 32077
CG9593 [DRSC16508] | raw ATP luminescence, replicate 1 = 75990; raw ATP luminescence, replicate 2 = 62700
CG4042 [DRSC11751] | raw ATP luminescence, replicate 1 = 65943; raw ATP luminescence, replicate 2 = 72907
CG44837 [DRSC10133] | raw ATP luminescence, replicate 1 = 95027; raw ATP luminescence, replicate 2 = 71643
CG44837 [DRSC10558] | raw ATP luminescence, replicate 1 = 87300; raw ATP luminescence, replicate 2 = 91543
CG15803 [DRSC15121] | raw ATP luminescence, replicate 1 = 71680; raw ATP luminescence, replicate 2 = 83960
Sgp [DRSC02195] | raw ATP luminescence, replicate 1 = 83060; raw ATP luminescence, replicate 2 = 90687
CG31643 [DRSC00906] | raw ATP luminescence, replicate 1 = 2.83e5; raw ATP luminescence, replicate 2 = 2.71e5
slp1 [DRSC00835] | raw ATP luminescence, replicate 1 = 96257; raw ATP luminescence, replicate 2 = 66477
CG3655 [DRSC17676] | raw ATP luminescence, replicate 1 = 3.09e5; raw ATP luminescence, replicate 2 = 2.86e5
CG3655 [DRSC18181] | raw ATP luminescence, replicate 1 = 44140; raw ATP luminescence, replicate 2 = 51930
CG3655 [DRSC18477] | raw ATP luminescence, replicate 1 = 50330; raw ATP luminescence, replicate 2 = 77980
vnd [DRSC17360] | raw ATP luminescence, replicate 1 = 2.23e5; raw ATP luminescence, replicate 2 = 2.46e5
vnd [DRSC18849] | raw ATP luminescence, replicate 1 = 50680; raw ATP luminescence, replicate 2 = 59650
CG5265 [DRSC15756] | raw ATP luminescence, replicate 1 = 65710; raw ATP luminescence, replicate 2 = 66150
ssp2 [DRSC11052] | raw ATP luminescence, replicate 1 = 21250; raw ATP luminescence, replicate 2 = 21517
nclb [DRSC07009] | raw ATP luminescence, replicate 1 = 37873; raw ATP luminescence, replicate 2 = 69907
Tb [DRSC15815] | raw ATP luminescence, replicate 1 = 33560; raw ATP luminescence, replicate 2 = 43470
Taf7 [DRSC15445] | raw ATP luminescence, replicate 1 = 57513; raw ATP luminescence, replicate 2 = 54353
CG13460 [DRSC10007] | raw ATP luminescence, replicate 1 = 65813; raw ATP luminescence, replicate 2 = 70210
Gar1 [DRSC04441] | raw ATP luminescence, replicate 1 = 49890; raw ATP luminescence, replicate 2 = 34530
COX6CL [DRSC00895] | raw ATP luminescence, replicate 1 = 2.66e5; raw ATP luminescence, replicate 2 = 2.77e5
CG10353 [DRSC19354] | raw ATP luminescence, replicate 1 = 3.01e5; raw ATP luminescence, replicate 2 = 3.17e5
CG4891 [DRSC01936] | raw ATP luminescence, replicate 1 = 87543; raw ATP luminescence, replicate 2 = 79480
bcd [DRSC12624] | raw ATP luminescence, replicate 1 = 46137; raw ATP luminescence, replicate 2 = 30373
Tasp1 [DRSC10495] | raw ATP luminescence, replicate 1 = 16770; raw ATP luminescence, replicate 2 = 13963

Copied from the list:
Under “raw ATP luminescence, replicate 2”, CG5265 [DRSC15756] is entered as 66150
Under “raw ATP luminescence, replicate 2”, CG9593 [DRSC16508] shows 62700
